Consider 3 molecules from PMC10769875.

Chains of the proteins cited; added tags and fusions are not shown.
UniProt Q79NI3: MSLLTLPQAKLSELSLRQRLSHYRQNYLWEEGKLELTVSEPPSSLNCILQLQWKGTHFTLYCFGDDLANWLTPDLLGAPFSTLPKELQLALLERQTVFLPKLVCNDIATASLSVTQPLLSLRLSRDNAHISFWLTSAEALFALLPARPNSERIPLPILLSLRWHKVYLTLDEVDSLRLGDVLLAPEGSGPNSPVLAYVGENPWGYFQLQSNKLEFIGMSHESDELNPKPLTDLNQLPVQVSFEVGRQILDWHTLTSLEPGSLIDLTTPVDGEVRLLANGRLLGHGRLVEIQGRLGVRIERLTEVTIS

Results are given in words; binding and its absence hold for the method and conditions named. Binding seen in cells or lysates may run through a third protein. A yes stands for co-enrichment or nearness to the bait. Other partners may have been found.

B1: Effector/gatekeeper SctW/YopN (protein, UniProt P16945 1-293)
chain: MTTLHNLSYGNTPLRNEHPEIASSQIVNQTLGQFRGESVQIVSGTLQSIADMAEEVTFVFSERKELSLDKRKLSDSQARVSDVEEQVNQYLSKVPELKQKQNVSELLSLLSNSPNISLSQLKAYLEGKSEEPSEQFKMLCGLRDALKGRPELAHLLHLVEQALVSMVEEQEEAIVLGARITPEAYRESQSGVNPLQPLRDTYRDAVMGYQGINAIWSDLQKRFPNGDIDSVILFLQKALSADLQSQQSGSEREKLEIVISDLQKLKEFRSVSDQVKGFWQLFSEGITNGLRPF
B2: Effector YopP (protein, UniProt Q93KQ5 1-288)
chain: MIGPISQINSPGGLSEKETSSLISNEELKNIITQLETDIADGSWFHKNYSRTDVKVMPALVTQANNKYPEMNLNFVTSPLDLSIEIKNVIENGVGSSRFIINMGEDGIHFSVIDYKHINGKTSLILFEPANFNSMGPAMLAIRAKTAIERYQLPDCHFSMVEMDIQRSSSECGIFSLALAKKLYTERDNLLKIHEDNIKGILSDGENPLPHDKLDPYLPVTFYKHTQGKKRLNEYLNTNPQGVGTVVNKKNETIFNRFDNNKSIIDGKELSVSVHKKRIAEYKTLLKV
B3: Effector YopT (protein, UniProt P27475 1-322)
chain: MDSIHGHYHIQLSNYSAGENLQSATLTEGVIGAHRVKVETALSHSNRQKKLSATIKHNQSSRSMLDRKLTSDGKANQRSSFTFSMIMYRMIHFVLSTRVPAVRESVANYGGNINFKFAQTKGAFLHQIIKHSDTASGVCEALCAHWIWSHAQGQSLFDQLYVGGRKGKFQIDTLYSIKQLQIDGCKADVDQDEVTLDWFKKKGISERMIERHCLLRPVDVTGTTESEGPDQLLNAILDTHGIGYGYKKIYLSGQMSAHAIAAYVNEKSGVTFFDPNFGEFHFSDKEKFRKWFTNSFWENSMYHYPLGVGQRFSVLTFDSKEV

This assay has as its target miniTurbo-SctQ (Y. enterocolitica) (UniProt Q79NI3). Kind of assay: proximity labelling.
Regarding B1, the binding entry was “binds”.

B2: the binding entry is reported as “binds”.

On to B3, for which the binding result is “binds”.
